Experimental data from PubChem BioAssay AID2549 (National Center for Advancing Translational Sciences (NCATS), 2010).
About 1,300 (0.54%) of roughly 240,000 compounds were called active. The inconclusive results got no clear call from the source; some entries with a clear call stand among them for comparison. The call rests on the fitted dose curve; in most records, active means well fitted inhibition curve with a large enough effect; inconclusive means small, poorly fitted or top-dose-only effect; inactive means flat fitted curve, though single readings scatter. Where the call is inconclusive, the potency comes from a doubtful curve fit.
Further: nearly all actives have a fitted effect of over 30% in size.
Potency means the concentration at half of the fitted maximal effect.
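Wherever activity, negative = inhibition is given: plate controls were vehicle for no effect and no enzyme for full effect.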

The chains behind the UniProt entries cited, without tags or fusion partners. Where a name states a change or a piece, a line headed by the entry shows the natural chain unless it says otherwise.
UniProt P46063: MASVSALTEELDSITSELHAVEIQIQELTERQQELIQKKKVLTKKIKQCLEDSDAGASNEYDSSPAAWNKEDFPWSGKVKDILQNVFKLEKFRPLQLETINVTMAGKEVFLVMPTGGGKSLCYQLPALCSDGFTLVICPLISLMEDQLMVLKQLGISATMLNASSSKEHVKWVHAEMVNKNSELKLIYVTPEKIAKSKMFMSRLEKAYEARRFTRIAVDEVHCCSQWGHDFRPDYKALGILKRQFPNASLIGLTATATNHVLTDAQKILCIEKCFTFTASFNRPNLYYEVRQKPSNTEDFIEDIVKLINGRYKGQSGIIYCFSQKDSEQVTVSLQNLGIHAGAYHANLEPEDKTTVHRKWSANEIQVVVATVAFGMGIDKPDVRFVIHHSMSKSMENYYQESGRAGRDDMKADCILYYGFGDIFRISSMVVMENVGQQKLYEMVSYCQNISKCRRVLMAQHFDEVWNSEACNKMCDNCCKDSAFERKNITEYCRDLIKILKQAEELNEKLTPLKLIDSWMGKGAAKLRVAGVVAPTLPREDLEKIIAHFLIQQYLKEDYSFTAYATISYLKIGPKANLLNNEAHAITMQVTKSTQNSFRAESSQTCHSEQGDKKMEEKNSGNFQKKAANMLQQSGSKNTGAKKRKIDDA

What follows are compounds tested against ATP-dependent DNA helicase Q1 (Homo sapiens) (UniProt P46063) (assay: qHTS Assay for Inhibitors of RecQ-Like Dna Helicase 1 (RECQ1)). Settings: RECQ1 DNA unwinding, red fluorescence kinetic read; activity, negative = inhibition: at 57.3 µM (top of the series); series mostly up to 57.3 µM.
Summary of the method: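 RECQ1T1 50 nM; forked duplex (20 bp + 30-nt ss tails) 200 nM, ATP 2 mM final; pH 8.0, 2 mM MgCl2, 2.5 ug/ml poly(dI-dC); 15 min compound preincubation; discontinuous kinetic read over 2 h at RT.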
In the case of `N=c1c2c(n(Cc3ccc(Br)cc3)c3c1CCC3)CCCC2`, the Potency is reported as inconclusive: 7.08 µM [inhibitor, single point].
In the case of `COc1ccc2[nH]c3c(=O)n(Cc4ccc(C(=O)NCC5CCCO5)cc4)c(=S)[nH]c3c2c1` (stereo not drawn), the Potency is reported as active: 20 µM.
With `O=c1c2ccccc2nc(-c2ccccc2)n1Cc1ccccc1` the Potency was inconclusive: 3.98 µM [inhibitor, single point].
In the case of `COCCCNc1oc(-c2ccccc2Cl)nc1C#N`, the Potency is reported as inconclusive: 39.8 µM [inhibitor, single point].
`O=C(/C=C/c1ccco1)NCc1ccco1` was tested, and the Potency was inconclusive: 35.5 µM [inhibitor, single point].
For `COc1ccc(NC(=O)c2ccc(CNS(=O)(=O)c3cccc(OC)c3)cc2)cc1`, the Potency was active: 35.5 µM.
For `COc1ccccc1NC(=O)CSc1nnc(COc2ccc(Cl)cc2)n1Cc1ccco1`, the Potency was inconclusive: 20 µM [inhibitor, partial curve].
In the case of `CCN(CC)CCCCn1c(-c2ccccc2)nc2c(N(CCOC)CCOC)nc(C)nc21`, the Potency is reported as “inactive”.
With `Cc1cc2c(c(=O)o1)C(c1ccc([N+](=O)[O-])o1)C(C#N)=C(N)O2` (stereo not drawn) the Potency was active: 22.4 µM.
For `CN(C)c1cccc(C(=O)OCc2cc(=O)oc3cc(O)ccc23)c1`, the activity, negative = inhibition was inconclusive: -33.1% [inhibitor].
With `CN1C(=O)CC(Nc2cccc3cccc(N)c23)C1=O` (stereo not drawn) the Potency was inconclusive: 6.31 µM [inhibitor, single point].
For `CCc1oc2ccccc2c1C(=O)c1cc(Br)c(O)c(Br)c1`, the Potency was inconclusive: 39.8 µM [inhibitor, single point].
For `O=C(N/N=C/c1ccc2c(c1)OCO2)c1cc(-c2ccccc2)nc2ccccc12`, the Potency was inconclusive: 5.01 µM [inhibitor, single point].
For `COc1ccc(/C=C(\C#N)C(=O)OCC(=O)NCc2ccccc2Cl)cc1`, the Potency was inconclusive: 0.158 µM [inhibitor, full curve, poor fit].
With `COc1ccc(C(C)(C)C)cc1NC(=O)Nc1ccc2c(c1)OCO2` the Potency was inconclusive: 39.8 µM [inhibitor, single point].
`COc1ccc(NC(=O)CSc2nncn2C)cc1OC` was tested, and the Potency was inconclusive: 39.8 µM [inhibitor, single point].
`COc1ccc(CCNC(=O)c2cc3sc(Cl)cc3n2C)cc1OC` was tested, and the Potency was inconclusive: 35.5 µM [inhibitor, single point].
With `O=C1c2cccc3cccc(c23)C(=O)N1CC1CCN(CC(O)COc2ccc3ccccc3c2)CC1` (stereo not drawn) the Potency was inconclusive: 39.8 µM [inhibitor, single point].
For `Cc1ccc(CN2CCN(/N=C\c3cccc([N+](=O)[O-])c3)CC2)cc1`, the Potency was inconclusive: 6.31 µM [inhibitor, partial curve, poor fit].
`COc1cc(/C=N/NC(=O)CSc2ccccn2)ccc1O` was tested, and the Potency was “inactive”.
With `N#Cc1c2nc3ccccc3nc2n2cc(NC(=O)c3ccc(F)cc3)ccc12` the Potency was “inactive”.
With `COc1cc(OC)c2c(-c3ccccc3)cc(=O)oc2c1C(CCN1CCN(c2ccccc2)CC1)c1ccc(N(C)C)cc1` (stereo not drawn) the Potency was inconclusive: 6.31 µM [inhibitor, single point].
`O=C1C(Cc2ccccc2)S/C(=N/N=C/c2ccco2)N1c1ccccc1` (stereo not drawn) was tested, and the Potency was inconclusive: 2.51 µM [inhibitor, partial curve, poor fit].
With `c1ccc(Nc2cccc3c(Nc4ccccc4)cccc23)cc1` the Potency was inconclusive: 35.5 µM [inhibitor, single point].
In the case of `Cc1cccnc1NC(=S)NC(=O)/C=C/c1ccco1`, the Potency is reported as inconclusive: 35.5 µM [inhibitor, single point].
With `N#CCC(=O)N/N=C/c1cn(Cc2ccc3ccccc3c2)c2ccccc12` the Potency was inconclusive: 39.8 µM [inhibitor, single point].
With `Cc1cc(=O)n2[nH]c(-c3ccsc3-n3c(C)ccc3C)cc2n1` the Potency was active: 8.91 µM.
In the case of `CNC(=O)COc1ccc(S(=O)(=O)Nc2ccccc2)cc1`, the Potency is reported as inconclusive: 0.141 µM [inhibitor, full curve, poor fit].
In the case of `COc1ccc(C(=S)N2CCN(c3ccccc3C)CC2)cc1`, the Potency is reported as inconclusive: 39.8 µM [inhibitor, single point].
For `O=C(CSc1nc2ccsc2c(=O)n1CC1CCC(C(=O)O)CC1)c1ccc(Cl)cc1` (stereo not drawn), the Potency was inconclusive: 28.2 µM [inhibitor, single point].
With `Cc1cc(SCC(=O)c2ccc(O)c(O)c2)nc2ccccc12` the Potency was active: 25.1 µM.
With `Nc1ccc2c(c1Cl)C(=O)c1ccc(N)c(Cl)c1C2=O` the Potency was inconclusive: 31.6 µM [inhibitor, single point].
For `CCOC(=O)CN1C(=O)N[C@H](c2ccc(Br)cc2)C(C(C)=O)=C1C`, the Potency was “inactive”.
`O=C(OCc1cc(=O)n2c(n1)sc1ccccc12)c1ccc2c(=O)n3c(nc2c1)CCC3` was tested, and the Potency was “inactive”.
In the case of `CN(C)C=Nc1nonc1N`, the Potency is reported as inconclusive: 1.12 µM [inhibitor, full curve].
`CCC(=O)c1c[nH]c(C(=O)NCCCn2ccnc2)c1` was tested, and the Potency was “inactive”.
For `Nc1ncnc2oc(-c3ccco3)c(-c3ccco3)c12`, the Potency was active: 10 µM.
In the case of `O=C(Nc1cccnc1)c1ccc(Oc2ccccc2)cc1`, the Potency is reported as inconclusive: 3.55 µM [inhibitor, partial curve].
`Cc1ccc2nc(-c3ccncc3)cc(C(=O)Nc3ccc(OC(F)F)cc3)c2c1` was tested, and the Potency was inconclusive: 7.94 µM [inhibitor, single point].
With `Cc1ccc(C2=NOC(=O)/C2=C\c2ccc(C)o2)cc1` the Potency was inconclusive: 28.2 µM [inhibitor, single point].
`CC(/C=N/n1c(-c2ccncc2)n[nH]c1=S)=C\c1ccco1` was tested, and the Potency was inconclusive: 39.8 µM [inhibitor, single point].
For `COc1cc(-c2oc3cc(O)cc(O)c3c(=O)c2O[C@@H]2O[C@H](CO)[C@@H](O)[C@H](O)[C@H]2O)ccc1O`, the Potency was “inactive”.
With `Cc1cc(C(=O)OCC(=O)NCc2ccco2)c(C)n1-c1ccccc1` the Potency was inconclusive: 22.4 µM [inhibitor, partial curve].
`C=CCSc1nc(=O)n2ccc(C)cc2n1` was tested, and the Potency was active: 1.58 µM.
`COc1ccc(OCC(=O)Nc2ccc(S(=O)(=O)N3CCCCCC3)cc2)cc1` was tested, and the Potency was inconclusive: 0.158 µM [inhibitor, full curve, poor fit].
For `CCc1ccc2[nH]c(=O)c(CN(Cc3ccccc3)Cc3nnnn3Cc3ccco3)cc2c1`, the Potency was active: 31.6 µM.
For `CNCc1ccccc1Sc1ccc(O)c(O)c1`, the Potency was inconclusive: 11.2 µM [inhibitor, partial curve].
In the case of `Cc1ccc(-n2c(C)cc(/C=N\NC(=O)CC(=O)NC(C)C)c2C)cc1`, the Potency is reported as inconclusive: 3.98 µM [inhibitor, partial curve].
In the case of `CCCCOc1ccc(-c2nc(SCC(N)=O)n[nH]2)cc1`, the Potency is reported as inconclusive: 14.1 µM [inhibitor, partial curve].
With `O=C(NCc1ccc(OC(F)(F)F)cc1)C1CC(c2ccccc2C(F)(F)F)=NO1` (stereo not drawn) the Potency was inconclusive: 0.141 µM [inhibitor, full curve, poor fit].
For `Nc1c(C(=O)NCc2ccc(F)cc2)c2nc3ccccc3nc2n1CCCN1CCOCC1`, the Potency was inconclusive: 25.1 µM [inhibitor, single point].
For `O=C1C2CC=C(Cl)CC2C(=O)N1CCCCCCN1C(=O)C2CC=C(Cl)CC2C1=O` (stereo not drawn), the Potency was active: 28.2 µM.
With `COC1[C@@H](OC)C[C@H](C)[C@@H](OC)C2=CC(=O)C=C(NC(=O)/C(C)=C/C=C\[C@H](OC)[C@@H](OC(N)=O)/C(C)=C/[C@@H]1C)C2=O` (stereo partly drawn) the Potency was “inactive”.
`COc1cccc2c(SCC(=O)N/N=C/c3ccc(O)c(O)c3)cc(C)nc12` was tested, and the Potency was active: 25.1 µM.
With `CN(CCO)c1nc(N)c2c(N)nc3c(c2c1C#N)CC(=O)N3C1CCCC1` the Potency was inconclusive: 39.8 µM [inhibitor, single point].
`O=C1c2cccc3cc([N+](=O)[O-])cc(c23)C(=O)N1CCN1CCCC1` was tested, and the Potency was inconclusive: 25.1 µM [inhibitor, single point].
`COc1ccc(OCC(=O)Nc2nnc(-c3ccco3)s2)cc1` was tested, and the Potency was active: 31.6 µM.
For `COc1c2ccoc2cc2oc(=O)ccc12`, the Potency was “inactive”.
`O=C(O)c1ccc(/C=N/NC(=O)c2ccc(CN3c4cccc5cccc(c45)S3(=O)=O)cc2)cc1` was tested, and the Potency was inconclusive: 39.8 µM [inhibitor, single point].
For `CNc1ncncc1-c1ccccc1OC`, the Potency was “inactive”.
For `O=C1NC(=S)S/C1=C/c1ccc(N2CCOCC2)o1`, the Potency was “inactive”.
`CCC1(C)Cc2c(sc3nnn(CC(=O)Nc4ccc(C)cc4)c(=O)c23)CO1` (stereo not drawn) was tested, and the Potency was inconclusive: 6.31 µM [inhibitor, single point].
`COc1ccc(C2/C=C\CN(C(=O)Nc3ccc(C(F)(F)F)cc3)CC(=O)N2Cc2ccc(F)cc2)cc1` (stereo not drawn) was tested, and the Potency was inconclusive: 6.31 µM [inhibitor, single point].
`CCC(C)NC(=O)c1c(N)n(/N=C/c2cccnc2)c2nc3ccccc3nc12` (stereo not drawn) was tested, and the Potency was inconclusive: 5.62 µM [inhibitor, partial curve, poor fit].
For `COc1ccc(C(=O)OCC(=O)Nc2sccc2C(N)=O)cc1OC`, the Potency was inconclusive: 39.8 µM [inhibitor, single point].
For `CCOCCCN1CC(C(=O)NCCc2ccc(C)cc2)CC1=O` (stereo not drawn), the Potency was inconclusive: 0.398 µM [inhibitor, partial curve, poor fit].
For `C#CCCCO/N=C1/C[C@@H](O)[C@@H](O)[C@@H]2[C@@H]3C(=O)N(Cc4ccccc4)C(=O)[C@H]3CC[C@H]12`, the outcome was “inactive [at 11.5 µM]”.
For `C/C(=N/NC(=O)c1cc(O)c(O)c(O)c1)c1ccc([N+](=O)[O-])cc1`, the Potency was “inactive”.
